The whole screen tested about 300,000 compounds, of which about 5,400 (1.8%) were called active. Inconclusive results, whose numbers are uncertain, are shown with a selection of clear calls. Calls come from the whole dose curve; tested in HEK293 cells. Potencies of inconclusive entries are doubtful fits and often do not repeat.
test: qHTS for inhibitors of binding or entry into cells for Marburg Virus; details: Marburg virus pseudotyped entry inhibition, cell reporter; series mostly up to 37.8 µM
Potency is the fitted concentration of half-maximal effect.

Compound | Potency
CCOCCCNC(=S)N1CCN(Cc2ccco2)CC1 | inconclusive: 35.5 µM [activator, single point]
CC1(C)CC(=O)c2c(-c3cccs3)n[nH]c2C1 | inactive
Cc1ccccc1CSCC(=O)c1c(N)n(CC(C)C)c(=O)n(C)c1=O | inconclusive: 4.47 µM [inhibitor, partial curve, poor fit]
CCN(CC(=O)Nc1c(F)cccc1F)C(=O)c1ccc(=O)n(C)n1 | inactive
CN1CCN(C(=O)c2cccc(COc3cc(Cl)ccc3Cl)c2)CC1 | inconclusive: 2.31 µM [activator, single point]
Cc1nn(Cc2cccc(F)c2)c(C)c1NC(=O)c1c(Cl)cnn1C | inconclusive: 10 µM [inhibitor, single point]
O=C1C2C(c3ccccc3)C=CC(c3ccccc3)C2C(=O)N1c1ccncc1 (stereo not given) | inactive
O=c1c2ccccc2nc(-c2ccco2)n1-c1nc2ccccc2s1 | inconclusive: 29.1 µM [inhibitor, single point]
Cc1ccc(-c2ccc(=O)n(CC(=O)Nc3ccc(C(C)C)cc3)n2)cc1 | inactive
CC(NC(=O)/C(C#N)=C1\N=C(NC(=O)c2ccco2)c2ccccc21)c1ccccc1 (stereo not given) | inconclusive: 2.82 µM [inhibitor, full curve, poor fit]
Cc1nc(NCC(c2ccccc2)N(C)C)c2c(C)c(C)sc2n1 (stereo not given) | inconclusive: 22.4 µM [inhibitor, single point]
O=C(COC(=O)COc1ccccc1)Nc1ncc([N+](=O)[O-])s1 | inconclusive: 35.5 µM [activator, single point]
CCCc1c(C(=O)NNc2cc(C(F)(F)F)ccc2Cl)cnn1-c1ccccc1 | inconclusive: 2 µM [inhibitor, partial curve, poor fit]
C=CCn1cc(C(=O)NCCCOCC)c(=O)c2cc(S(=O)(=O)N(CC)CC)ccc21 | inactive
CNc1ccc(OC)cc1-n1cnc(-c2ccc([N+](=O)[O-])cc2)c1 | inconclusive: 35.5 µM [inhibitor, single point]
O=C1C2C3C=CC(C3=C3CCCCC3)C2C(=O)N1c1ccccc1 (stereo not given) | inactive
COc1ccccc1C(=O)Nc1cccc(C(=O)N2CCOCC2)c1 | inconclusive: 2.24 µM [inhibitor, single point]
Cc1oc2ccc(O)c(CN3CCOCC3)c2c1C(=O)Nc1ccc(C(C)C)cc1 | inconclusive: 35.5 µM [inhibitor, single point]
O=C(Nc1ccc(Cl)cc1C(=O)NCC1CCCO1)c1ccc(Cl)cc1Cl (stereo not given) | inactive
Cc1nc(NC(=O)COC(=O)C2=NNC(=O)CC2)c(Cl)cc1Cl | inconclusive: 11.2 µM [activator, single point]
CCOc1cc(CNCCc2c[nH]c3ccccc23)cc(Cl)c1OC | inconclusive: 35.5 µM [inhibitor, single point]
CCN1CCN(c2cc(C)c3cc(NC(=O)CCC(=O)N4CCN(c5ccccc5)CC4)ccc3n2)CC1 | inconclusive: 31.6 µM [inhibitor, single point]
COc1ccc(NC(=O)C2CCCN(S(=O)(=O)c3ccc(C)cc3)C2)cc1OC (stereo not given) | inconclusive: 20.6 µM [inhibitor, single point]

As entered above:
In Potency, O=C1C2C3C=CC(C3=C3CCCCC3)C2C(=O)N1c1ccccc1 (stereo not given) has the entry inactive
In Potency, Cc1oc2ccc(O)c(CN3CCOCC3)c2c1C(=O)Nc1ccc(C(C)C)cc1 has the entry inconclusive: 35.5 µM [inhibitor, single point]

(further entries)

Compound | Potency
Cn1nnnc1SCC(=O)N1CCCc2ccccc21 | inactive
CN(C)c1ccc(/C=C(/C#N)C(=O)NCc2ccccc2)o1 | inactive
CCN=C1SCC(=O)N1c1ccc(OC)cc1 | inactive
Cc1nc(NC(=O)CSc2nnc(Cn3nnc4ccccc43)n2C)sc1C | inconclusive: 3.55 µM [activator, partial curve, poor fit]
CC(C)N1CCC(=NNC(=O)c2ccccc2[N+](=O)[O-])CC1 | inactive
CC1CC(C)CN(c2ncc3c(n2)CC(c2ccc(Cl)cc2)CC3=O)C1 (stereo not given) | inactive
CC(=O)Nc1ccc2nc(CN3CCC(CO)(CCc4ccccc4)CC3)ccc2c1 | inconclusive: 11.2 µM [inhibitor, partial curve, poor fit]
CC(CC(=O)N1CCN(c2ccc(C(F)(F)F)cn2)CC1)n1ccnc1 (stereo not given) | inconclusive: 6.31 µM [activator, single point]
Cc1cc(C(=O)N/N=C2\CC(=O)CC(C)(C)C2)c2ccccc2n1 | inconclusive: 0.0041 µM [inhibitor, full curve, poor fit]
Cc1cc(C)c2nc(N3CCCC(C(=O)N4CCC(C(N)=O)CC4)C3)sc2c1 (stereo not given) | inactive
CCOc1ccc(NC(=S)Nc2ccc(C)c([N+](=O)[O-])c2)cc1 | inactive
CN(Cc1ccccc1)C(=C(Cl)Cl)C(=C1NCCN1)[N+](=O)[O-] | inactive
COc1ccccc1N1CCN(S(=O)(=O)c2ccc(F)cc2)CC1 | inactive
O=C(CN1CCCCCCC1)N/N=C/c1ccc([N+](=O)[O-])o1 | inconclusive: 1 µM [inhibitor, partial curve, poor fit]
CC1CC1c1ccc(/C=C(\C#N)C(=O)Nc2ccccc2Cl)o1 (stereo not given) | inconclusive: 6.31 µM [activator, partial curve]
CCOC(=O)c1ccccc1N/C=C/C(=O)c1ccccc1 | inactive
C=CCC(O)(C#Cc1ccccc1)c1ccccc1 (stereo not given) | inconclusive: 5.96 µM [activator, partial curve, poor fit]
O=C(NCCCN1CCCC1=O)C(=O)NCC1OCCN1S(=O)(=O)c1ccc(Br)cc1 (stereo not given) | inconclusive: 35.5 µM [inhibitor, single point]
O=C(CCn1c(=S)oc2ccccc21)Nc1ccc2c(c1)OCCO2 | inactive
CC(C)CCNC(=O)c1c(N)n(Cc2ccc3c(c2)OCO3)c2nc3ccccc3nc12 | inconclusive: 29.1 µM [inhibitor, single point]
Cn1cc(C(=O)N/N=C/c2ccc([N+](=O)[O-])cc2)c2ccccc21 | inconclusive: 4.47 µM [activator, full curve, poor fit]
CN(Cc1ccccc1)CC(O)COc1ccc(CNCCOc2cccnc2)cc1 (stereo not given) | inconclusive: 15.8 µM [inhibitor, partial curve, poor fit]
